The values below come from PMC8587416.

Experiment [1] deals with β-tubulin (human (endogenous in MDA-MB-231)). Nature of the experiment: FRET or BRET; immunofluorescence staining of fixed MDA-MB-231 cells (HAS3-overexpressing against vector control) with antibodies to HAS3 and β-tubulin and FITC/rhodamine secondary antibodies; FRET analysis under a confocal microscope.
Experiment [2] has as its target α-tubulin-AmCyan (from the plasmid α-tubulin-AmCyan-pcDNA3.1). The experiment can be described thus: FRET or BRET; FLIM-FRET in live MDA-MB-231 cells co-transfected with α-tubulin-AmCyan (donor) and HAS3-EYFP or EYFP (acceptor); donor lifetime collected every 30 min for 10 h; 37 °C, 5% CO2.

These are yes or no findings as the source states them, for the method shown. Binding seen in cells or lysates may run through a third protein. Binding can be weak; no strength is given. For some assays here: Where a sequence is shown, tags or fusion partners need not be part of it.

B1: hyaluronic acid synthase 3 (HAS3), overexpressed in MDA-MB-231 cells (enzyme, UniProt O00219 1-553)
chain: MPVQLTTALRVVGTSLFALAVLGGILAAYVTGYQFIHTEKHYLSFGLYGAILGLHLLIQSLFAFLEHRRMRRAGQALKLPSPRRGSVALCIAAYQEDPDYLRKCLRSAQRISFPDLKVVMVVDGNRQEDAYMLDIFHEVLGGTEQAGFFVWRSNFHEAGEGETEASLQEGMDRVRDVVRASTFSCIMQKWGGKREVMYTAFKALGDSVDYIQVCDSDTVLDPACTIEMLRVLEEDPQVGGVGGDVQILNKYDSWISFLSSVRYWMAFNVERACQSYFGCVQCISGPLGMYRNSLLQQFLEDWYHQKFLGSKCSFGDDRHLTNRVLSLGYRTKYTARSKCLTETPTKYLRWLNQQTRWSKSYFREWLYNSLWFHKHHLWMTYESVVTGFFPFFLIATVIQLFYRGRIWNILLFLLTVQLVGIIKATYACFLRGNAEMIFMSLYSLLYMSSLLPAKIFAIATINKSGWGTSGRKTIVVNFIGLIPVSIWVAVLLGGLAYTAYCQDLFSETELAFLVSGAILYGCYWVALLMLYLAIIARRCGKKPEQYSLAFAEV
Take B1: the binding entry in experiment [1] is on record as “binds”.

B2: HAS3-EYFP (from the plasmid HAS3-EYFP-pcDNA3.1) (enzyme, UniProt O00219 1-553)
chain: MPVQLTTALRVVGTSLFALAVLGGILAAYVTGYQFIHTEKHYLSFGLYGAILGLHLLIQSLFAFLEHRRMRRAGQALKLPSPRRGSVALCIAAYQEDPDYLRKCLRSAQRISFPDLKVVMVVDGNRQEDAYMLDIFHEVLGGTEQAGFFVWRSNFHEAGEGETEASLQEGMDRVRDVVRASTFSCIMQKWGGKREVMYTAFKALGDSVDYIQVCDSDTVLDPACTIEMLRVLEEDPQVGGVGGDVQILNKYDSWISFLSSVRYWMAFNVERACQSYFGCVQCISGPLGMYRNSLLQQFLEDWYHQKFLGSKCSFGDDRHLTNRVLSLGYRTKYTARSKCLTETPTKYLRWLNQQTRWSKSYFREWLYNSLWFHKHHLWMTYESVVTGFFPFFLIATVIQLFYRGRIWNILLFLLTVQLVGIIKATYACFLRGNAEMIFMSLYSLLYMSSLLPAKIFAIATINKSGWGTSGRKTIVVNFIGLIPVSIWVAVLLGGLAYTAYCQDLFSETELAFLVSGAILYGCYWVALLMLYLAIIARRCGKKPEQYSLAFAEV
In the case of B2, in experiment [2], the binding result is “binds”.
